Where a sequence shows no end group, the ends are not given.
Test: peptide synthesis
Conditions: whole synthesis, 214 nm

| Sequence | final HPLC purity |
| --- | --- |
| RQIKIWFQWRRMKWKK | 97.84% |
| RQIKIWFWNRRMKWKK | 98.11% |
| RQIKIWFWWRRMKWKK | 96.16% |
| RWIKIWFQNRRMKWKK | 95.94% |
| RWIKIWFQWRRMKWKK | 99.22% |
| RWIKIWFWNRRMKWKK | 95.71% |
| RWIKIWFWWRRMKWKK | 97.65% |

— US20230357334A1 (ALEPHOSON BIOPHARMACEUTICALS LTD., priority 2020, published 2023)
